What all share (assay): co-IP; 293T cells cotransfected with Flag- and His-tagged constructs; IP with anti-Flag ("indicated antibodies" for Figures 5A, 7C, 7D), western blot with anti-His and anti-Flag; some panels with or without 2 μM CPT for 1 h, or with MG132 (20 μM, 3 h) and NETN lysis
One experiment deals with T1, Flag-PPIL2 241-520 (UniProt Q13356).
T1 sequence: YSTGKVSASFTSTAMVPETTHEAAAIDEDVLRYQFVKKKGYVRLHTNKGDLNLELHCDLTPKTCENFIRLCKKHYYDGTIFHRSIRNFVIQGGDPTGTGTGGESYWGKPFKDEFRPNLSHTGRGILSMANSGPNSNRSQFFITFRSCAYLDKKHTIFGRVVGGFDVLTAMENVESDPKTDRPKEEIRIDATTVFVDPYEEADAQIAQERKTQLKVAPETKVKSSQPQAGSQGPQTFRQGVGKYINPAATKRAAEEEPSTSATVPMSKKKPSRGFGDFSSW

The chains behind the UniProt entries cited, without tags or fusion partners.
UniProt P53350: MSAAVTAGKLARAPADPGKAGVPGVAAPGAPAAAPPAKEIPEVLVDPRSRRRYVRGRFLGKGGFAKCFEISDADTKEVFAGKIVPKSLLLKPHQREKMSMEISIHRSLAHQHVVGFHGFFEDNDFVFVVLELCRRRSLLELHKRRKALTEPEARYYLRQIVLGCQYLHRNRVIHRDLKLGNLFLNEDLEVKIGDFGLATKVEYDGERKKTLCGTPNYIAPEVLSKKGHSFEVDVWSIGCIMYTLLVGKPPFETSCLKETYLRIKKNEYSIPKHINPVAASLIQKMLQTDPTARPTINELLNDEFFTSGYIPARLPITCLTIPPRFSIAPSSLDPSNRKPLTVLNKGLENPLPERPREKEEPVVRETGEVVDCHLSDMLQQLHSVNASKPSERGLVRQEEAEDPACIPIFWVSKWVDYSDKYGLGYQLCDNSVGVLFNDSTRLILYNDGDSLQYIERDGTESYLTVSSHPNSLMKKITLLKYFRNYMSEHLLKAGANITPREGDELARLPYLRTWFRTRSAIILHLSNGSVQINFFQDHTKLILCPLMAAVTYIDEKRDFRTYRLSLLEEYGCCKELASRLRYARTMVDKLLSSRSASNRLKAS
UniProt P54132: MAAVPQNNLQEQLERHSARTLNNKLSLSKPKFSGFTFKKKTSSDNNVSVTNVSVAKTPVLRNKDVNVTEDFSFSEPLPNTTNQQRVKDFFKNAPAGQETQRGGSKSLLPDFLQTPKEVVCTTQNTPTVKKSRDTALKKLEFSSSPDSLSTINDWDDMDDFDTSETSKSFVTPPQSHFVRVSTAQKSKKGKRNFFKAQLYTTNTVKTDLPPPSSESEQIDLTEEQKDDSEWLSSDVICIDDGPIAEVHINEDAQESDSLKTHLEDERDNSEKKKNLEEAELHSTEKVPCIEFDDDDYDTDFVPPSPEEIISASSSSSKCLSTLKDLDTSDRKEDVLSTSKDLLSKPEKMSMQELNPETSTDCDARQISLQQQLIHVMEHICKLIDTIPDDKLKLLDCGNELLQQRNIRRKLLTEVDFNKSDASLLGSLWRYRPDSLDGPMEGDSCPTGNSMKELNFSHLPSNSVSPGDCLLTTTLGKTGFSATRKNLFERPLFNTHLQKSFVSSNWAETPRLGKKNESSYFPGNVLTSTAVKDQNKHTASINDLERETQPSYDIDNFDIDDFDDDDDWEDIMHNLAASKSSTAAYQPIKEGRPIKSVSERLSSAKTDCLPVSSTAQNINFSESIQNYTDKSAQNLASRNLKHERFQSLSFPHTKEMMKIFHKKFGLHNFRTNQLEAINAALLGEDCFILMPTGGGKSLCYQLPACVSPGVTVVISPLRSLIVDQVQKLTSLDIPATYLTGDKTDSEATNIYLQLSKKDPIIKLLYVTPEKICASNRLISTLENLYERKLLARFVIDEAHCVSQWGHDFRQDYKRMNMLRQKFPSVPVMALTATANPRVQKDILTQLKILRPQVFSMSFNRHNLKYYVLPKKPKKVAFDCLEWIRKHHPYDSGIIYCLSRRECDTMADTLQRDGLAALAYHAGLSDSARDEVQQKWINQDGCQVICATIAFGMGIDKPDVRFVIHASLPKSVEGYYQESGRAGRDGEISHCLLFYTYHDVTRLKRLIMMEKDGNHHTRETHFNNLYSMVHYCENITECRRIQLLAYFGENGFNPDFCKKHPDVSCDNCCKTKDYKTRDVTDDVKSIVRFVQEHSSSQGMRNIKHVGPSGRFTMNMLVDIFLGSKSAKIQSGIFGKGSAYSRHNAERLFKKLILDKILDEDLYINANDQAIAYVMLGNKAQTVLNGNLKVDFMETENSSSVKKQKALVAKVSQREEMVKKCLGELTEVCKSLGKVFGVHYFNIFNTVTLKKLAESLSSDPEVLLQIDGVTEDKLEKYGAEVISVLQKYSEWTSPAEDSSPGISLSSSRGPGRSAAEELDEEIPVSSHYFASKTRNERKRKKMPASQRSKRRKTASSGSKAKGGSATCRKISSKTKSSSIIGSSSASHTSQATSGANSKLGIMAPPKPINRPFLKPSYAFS

In a further experiment the target is T2, Flag-PPIL2 1-240 (UniProt Q13356).
T2 sequence: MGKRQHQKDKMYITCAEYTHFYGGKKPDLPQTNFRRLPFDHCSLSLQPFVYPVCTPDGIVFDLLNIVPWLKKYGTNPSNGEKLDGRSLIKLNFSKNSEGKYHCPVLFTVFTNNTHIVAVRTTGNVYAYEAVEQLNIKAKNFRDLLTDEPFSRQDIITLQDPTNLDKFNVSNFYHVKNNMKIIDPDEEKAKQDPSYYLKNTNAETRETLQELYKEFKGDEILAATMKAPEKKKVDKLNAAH

In a further experiment the target is T3, Flag-CtIP K426A (human) (UniProt Q99708).
T3 sequence: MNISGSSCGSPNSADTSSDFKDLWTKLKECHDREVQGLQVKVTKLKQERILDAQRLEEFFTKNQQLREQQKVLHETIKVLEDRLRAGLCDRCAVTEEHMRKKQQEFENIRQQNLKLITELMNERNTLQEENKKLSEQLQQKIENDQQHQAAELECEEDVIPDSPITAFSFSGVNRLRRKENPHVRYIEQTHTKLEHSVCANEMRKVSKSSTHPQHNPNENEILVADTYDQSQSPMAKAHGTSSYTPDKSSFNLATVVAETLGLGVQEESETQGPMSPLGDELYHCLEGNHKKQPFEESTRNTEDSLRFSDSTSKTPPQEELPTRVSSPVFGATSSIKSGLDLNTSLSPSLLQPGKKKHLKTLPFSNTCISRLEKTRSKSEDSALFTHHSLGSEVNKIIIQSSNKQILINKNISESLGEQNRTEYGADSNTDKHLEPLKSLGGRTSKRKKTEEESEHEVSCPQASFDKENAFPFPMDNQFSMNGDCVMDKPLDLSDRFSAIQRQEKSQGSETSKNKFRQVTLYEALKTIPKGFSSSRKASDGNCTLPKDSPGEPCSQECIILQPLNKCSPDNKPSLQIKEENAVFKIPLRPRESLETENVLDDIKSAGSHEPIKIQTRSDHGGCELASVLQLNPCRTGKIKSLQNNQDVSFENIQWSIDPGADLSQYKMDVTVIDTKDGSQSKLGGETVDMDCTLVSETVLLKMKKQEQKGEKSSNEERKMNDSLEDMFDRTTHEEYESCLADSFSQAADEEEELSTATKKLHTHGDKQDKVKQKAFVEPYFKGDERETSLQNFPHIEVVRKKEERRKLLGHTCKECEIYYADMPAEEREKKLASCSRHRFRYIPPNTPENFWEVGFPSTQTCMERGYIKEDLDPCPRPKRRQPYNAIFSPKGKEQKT

No constants are given. Whether binding was seen depends on the method and setting. Binding seen in cells or lysates may run through a third protein. Some entries that bind do so weakly or less than the wild type. Where a sequence is shown, tags or fusion partners need not be part of it.

Two substances from publication PMC9452783 can be followed below.

As to “His-PLK1 (expressed in 293T cells) (from UniProt P53350 1-603) (enzyme)”, the binding entry with Flag-PPIL2 241-520 and with Flag-PPIL2 1-240 was “binds” in each case.

As for “His-BLM (from UniProt P54132 1-1417) (enzyme)”, in the experiment with Flag-CtIP K426A (human), the binding result is on record as “binds”.
